In the experiment the target is ryanodine receptor 2 (RyR2) (human (endogenous in SH-SY5Y)) (UniProt Q92736). The experiment in a line: co-IP; RyR2 immunoprecipitated from SH-SY5Y cell lysates with an RyR2-specific antibody in modified RIPA buffer (50 mM Tris-HCl pH 7.2, 0.9% NaCl, 5.0 mM NaF, 1.0 mM Na3VO4, 1% Triton X-100), overnight at 4 °C, protein A-Sepharose; immunoblot; cells: control, APPswe-expressing or Aβ-treated, with or without S107, ICI118-551, H-89, CGP 20712A, isoproterenol, β- or γ-secretase inhibitors. A general note: Immunoblotting shows a protein as a band on a membrane.

Sequences of proteins named here, by UniProt entry; tags and fusion partners are left off.
UniProt Q92736: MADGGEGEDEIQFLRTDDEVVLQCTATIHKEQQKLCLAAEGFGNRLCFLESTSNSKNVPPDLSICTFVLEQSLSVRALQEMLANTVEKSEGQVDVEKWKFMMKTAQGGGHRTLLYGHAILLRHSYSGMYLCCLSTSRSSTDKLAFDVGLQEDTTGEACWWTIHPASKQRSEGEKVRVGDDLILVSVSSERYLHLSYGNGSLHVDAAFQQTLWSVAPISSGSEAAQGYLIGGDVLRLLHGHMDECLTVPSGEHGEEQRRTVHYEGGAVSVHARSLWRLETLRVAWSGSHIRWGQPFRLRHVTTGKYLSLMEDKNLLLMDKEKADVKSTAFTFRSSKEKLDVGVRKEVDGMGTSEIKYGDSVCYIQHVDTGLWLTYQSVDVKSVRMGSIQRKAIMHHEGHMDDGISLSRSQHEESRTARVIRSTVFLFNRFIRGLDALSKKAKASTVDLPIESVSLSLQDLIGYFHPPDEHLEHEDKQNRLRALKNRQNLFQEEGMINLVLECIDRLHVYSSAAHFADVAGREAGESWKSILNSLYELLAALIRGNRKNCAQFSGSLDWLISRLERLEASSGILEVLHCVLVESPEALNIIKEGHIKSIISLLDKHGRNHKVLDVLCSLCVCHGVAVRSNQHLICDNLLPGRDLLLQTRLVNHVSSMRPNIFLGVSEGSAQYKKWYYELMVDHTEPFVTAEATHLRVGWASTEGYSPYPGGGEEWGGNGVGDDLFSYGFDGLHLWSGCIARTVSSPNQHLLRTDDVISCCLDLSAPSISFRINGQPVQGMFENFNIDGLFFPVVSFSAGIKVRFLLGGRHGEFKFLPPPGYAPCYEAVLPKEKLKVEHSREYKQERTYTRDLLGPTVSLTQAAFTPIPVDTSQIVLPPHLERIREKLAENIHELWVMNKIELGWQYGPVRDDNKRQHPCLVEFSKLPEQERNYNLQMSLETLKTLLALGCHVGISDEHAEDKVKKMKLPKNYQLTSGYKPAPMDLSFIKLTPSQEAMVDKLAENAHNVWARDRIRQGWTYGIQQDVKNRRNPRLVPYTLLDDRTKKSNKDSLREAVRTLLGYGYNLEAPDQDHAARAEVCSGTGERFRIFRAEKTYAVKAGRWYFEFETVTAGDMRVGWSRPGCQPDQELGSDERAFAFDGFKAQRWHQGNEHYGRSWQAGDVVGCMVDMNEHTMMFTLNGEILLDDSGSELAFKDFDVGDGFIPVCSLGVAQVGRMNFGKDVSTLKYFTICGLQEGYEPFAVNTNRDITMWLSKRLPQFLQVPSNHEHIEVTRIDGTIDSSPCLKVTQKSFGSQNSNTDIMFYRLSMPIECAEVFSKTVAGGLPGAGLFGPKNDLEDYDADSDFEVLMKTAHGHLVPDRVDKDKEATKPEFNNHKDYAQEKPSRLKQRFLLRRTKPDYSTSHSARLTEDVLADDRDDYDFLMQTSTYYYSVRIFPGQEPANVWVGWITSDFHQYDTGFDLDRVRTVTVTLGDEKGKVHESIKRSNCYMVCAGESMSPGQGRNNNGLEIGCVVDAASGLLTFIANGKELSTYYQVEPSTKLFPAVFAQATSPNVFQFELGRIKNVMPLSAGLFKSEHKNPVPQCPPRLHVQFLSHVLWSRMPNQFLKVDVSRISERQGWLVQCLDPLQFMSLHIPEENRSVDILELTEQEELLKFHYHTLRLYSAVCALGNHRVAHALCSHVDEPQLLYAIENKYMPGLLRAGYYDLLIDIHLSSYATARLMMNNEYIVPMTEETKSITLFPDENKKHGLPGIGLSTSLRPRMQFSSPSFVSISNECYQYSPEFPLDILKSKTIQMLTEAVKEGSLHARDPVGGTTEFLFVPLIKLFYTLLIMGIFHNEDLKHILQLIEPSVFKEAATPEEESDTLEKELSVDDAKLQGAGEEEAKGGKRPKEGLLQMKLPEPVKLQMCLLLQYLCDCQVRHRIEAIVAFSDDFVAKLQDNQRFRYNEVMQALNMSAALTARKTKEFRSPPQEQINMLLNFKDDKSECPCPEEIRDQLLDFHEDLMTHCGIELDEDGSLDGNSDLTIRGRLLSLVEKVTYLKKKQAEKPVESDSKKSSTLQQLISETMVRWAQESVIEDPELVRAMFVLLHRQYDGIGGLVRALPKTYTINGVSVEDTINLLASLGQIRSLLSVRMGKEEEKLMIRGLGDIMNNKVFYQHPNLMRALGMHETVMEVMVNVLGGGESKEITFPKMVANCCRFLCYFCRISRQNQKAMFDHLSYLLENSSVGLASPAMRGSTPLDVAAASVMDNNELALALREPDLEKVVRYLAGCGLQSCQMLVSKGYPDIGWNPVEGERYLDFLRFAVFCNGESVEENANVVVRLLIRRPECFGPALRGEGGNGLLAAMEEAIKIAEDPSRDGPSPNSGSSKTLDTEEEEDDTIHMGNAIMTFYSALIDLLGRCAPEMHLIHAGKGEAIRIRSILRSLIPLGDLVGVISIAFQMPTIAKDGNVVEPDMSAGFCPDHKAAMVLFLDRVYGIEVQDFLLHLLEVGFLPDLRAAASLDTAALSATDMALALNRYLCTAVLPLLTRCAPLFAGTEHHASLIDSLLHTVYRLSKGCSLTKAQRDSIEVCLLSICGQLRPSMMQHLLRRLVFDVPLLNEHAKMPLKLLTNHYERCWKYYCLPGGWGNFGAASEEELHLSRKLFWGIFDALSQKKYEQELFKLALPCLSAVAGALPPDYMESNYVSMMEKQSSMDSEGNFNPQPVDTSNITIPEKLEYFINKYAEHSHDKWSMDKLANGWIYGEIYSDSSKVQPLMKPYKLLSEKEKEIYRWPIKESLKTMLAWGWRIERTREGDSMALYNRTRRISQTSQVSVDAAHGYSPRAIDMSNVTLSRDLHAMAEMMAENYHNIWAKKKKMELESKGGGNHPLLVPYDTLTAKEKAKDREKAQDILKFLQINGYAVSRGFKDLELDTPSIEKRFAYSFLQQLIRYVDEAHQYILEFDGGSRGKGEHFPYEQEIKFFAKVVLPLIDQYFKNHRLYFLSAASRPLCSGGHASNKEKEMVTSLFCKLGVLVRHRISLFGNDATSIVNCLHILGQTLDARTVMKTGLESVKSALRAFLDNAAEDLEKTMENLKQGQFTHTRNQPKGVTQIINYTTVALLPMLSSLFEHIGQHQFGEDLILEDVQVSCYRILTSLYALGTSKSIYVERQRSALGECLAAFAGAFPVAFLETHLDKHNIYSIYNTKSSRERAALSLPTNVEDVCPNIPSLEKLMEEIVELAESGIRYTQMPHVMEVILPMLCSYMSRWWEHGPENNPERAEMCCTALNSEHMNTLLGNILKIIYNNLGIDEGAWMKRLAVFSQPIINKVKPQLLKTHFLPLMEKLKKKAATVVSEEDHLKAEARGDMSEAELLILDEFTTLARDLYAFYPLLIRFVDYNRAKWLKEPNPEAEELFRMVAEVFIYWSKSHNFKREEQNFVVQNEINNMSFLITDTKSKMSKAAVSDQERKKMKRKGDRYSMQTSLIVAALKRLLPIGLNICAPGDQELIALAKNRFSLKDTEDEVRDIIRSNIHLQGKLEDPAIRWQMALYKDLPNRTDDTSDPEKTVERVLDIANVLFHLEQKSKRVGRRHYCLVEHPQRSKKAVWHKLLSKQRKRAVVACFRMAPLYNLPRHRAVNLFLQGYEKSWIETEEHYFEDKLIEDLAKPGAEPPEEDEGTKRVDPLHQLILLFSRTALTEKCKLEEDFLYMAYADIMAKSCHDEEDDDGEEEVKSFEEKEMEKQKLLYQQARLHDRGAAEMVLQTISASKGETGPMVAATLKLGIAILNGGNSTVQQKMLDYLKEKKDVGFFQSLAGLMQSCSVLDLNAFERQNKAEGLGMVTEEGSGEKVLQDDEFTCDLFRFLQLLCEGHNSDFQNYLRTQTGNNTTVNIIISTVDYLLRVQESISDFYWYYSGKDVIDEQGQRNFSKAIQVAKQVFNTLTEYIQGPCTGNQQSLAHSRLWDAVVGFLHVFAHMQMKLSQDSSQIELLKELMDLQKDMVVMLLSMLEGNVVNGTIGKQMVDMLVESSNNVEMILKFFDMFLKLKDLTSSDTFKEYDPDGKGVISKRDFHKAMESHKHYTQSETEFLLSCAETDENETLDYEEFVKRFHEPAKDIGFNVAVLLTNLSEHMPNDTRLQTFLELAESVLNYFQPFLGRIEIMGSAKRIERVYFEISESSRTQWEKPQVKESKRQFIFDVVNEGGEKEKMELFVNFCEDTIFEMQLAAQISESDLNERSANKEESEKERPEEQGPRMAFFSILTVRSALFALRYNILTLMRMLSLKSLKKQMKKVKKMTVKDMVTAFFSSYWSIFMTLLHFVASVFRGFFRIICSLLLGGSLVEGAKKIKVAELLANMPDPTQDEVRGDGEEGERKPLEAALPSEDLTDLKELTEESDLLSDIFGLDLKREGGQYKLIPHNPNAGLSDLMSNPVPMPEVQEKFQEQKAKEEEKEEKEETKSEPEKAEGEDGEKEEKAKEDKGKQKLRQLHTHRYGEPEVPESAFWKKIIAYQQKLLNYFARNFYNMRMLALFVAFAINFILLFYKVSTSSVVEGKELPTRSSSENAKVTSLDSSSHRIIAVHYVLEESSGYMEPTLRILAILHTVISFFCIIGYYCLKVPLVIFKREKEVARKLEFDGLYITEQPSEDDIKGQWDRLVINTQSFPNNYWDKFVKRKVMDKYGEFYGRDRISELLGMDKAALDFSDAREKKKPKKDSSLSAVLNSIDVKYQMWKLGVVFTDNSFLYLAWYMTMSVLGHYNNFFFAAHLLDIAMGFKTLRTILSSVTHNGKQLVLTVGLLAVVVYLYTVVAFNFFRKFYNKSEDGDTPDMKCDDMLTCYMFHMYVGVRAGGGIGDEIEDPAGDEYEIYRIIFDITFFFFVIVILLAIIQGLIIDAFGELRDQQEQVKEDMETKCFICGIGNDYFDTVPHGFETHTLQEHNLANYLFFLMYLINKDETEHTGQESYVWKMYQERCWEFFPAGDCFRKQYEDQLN
UniProt P68106: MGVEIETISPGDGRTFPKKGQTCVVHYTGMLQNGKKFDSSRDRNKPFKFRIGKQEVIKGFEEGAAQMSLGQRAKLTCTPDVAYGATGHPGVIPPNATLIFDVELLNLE
UniProt Q96SB3: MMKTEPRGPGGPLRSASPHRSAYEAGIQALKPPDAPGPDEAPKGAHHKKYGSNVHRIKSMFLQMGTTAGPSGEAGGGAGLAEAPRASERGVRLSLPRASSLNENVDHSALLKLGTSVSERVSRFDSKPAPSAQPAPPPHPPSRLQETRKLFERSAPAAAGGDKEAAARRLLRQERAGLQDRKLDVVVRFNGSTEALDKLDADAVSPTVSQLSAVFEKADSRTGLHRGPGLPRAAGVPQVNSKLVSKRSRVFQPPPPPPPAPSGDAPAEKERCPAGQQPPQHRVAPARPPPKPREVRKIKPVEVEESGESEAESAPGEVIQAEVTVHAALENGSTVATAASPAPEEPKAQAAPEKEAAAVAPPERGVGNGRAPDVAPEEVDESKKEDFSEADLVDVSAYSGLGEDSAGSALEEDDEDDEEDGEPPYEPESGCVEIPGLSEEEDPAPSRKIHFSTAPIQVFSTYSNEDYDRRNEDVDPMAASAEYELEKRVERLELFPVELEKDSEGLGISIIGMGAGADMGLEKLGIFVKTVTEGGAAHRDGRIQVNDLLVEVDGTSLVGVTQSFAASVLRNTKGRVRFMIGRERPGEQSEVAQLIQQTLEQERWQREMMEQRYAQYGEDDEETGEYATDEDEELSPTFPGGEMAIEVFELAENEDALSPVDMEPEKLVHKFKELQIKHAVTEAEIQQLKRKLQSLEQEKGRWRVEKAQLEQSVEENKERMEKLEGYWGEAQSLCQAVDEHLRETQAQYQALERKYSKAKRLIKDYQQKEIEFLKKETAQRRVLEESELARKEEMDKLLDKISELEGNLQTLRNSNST

No constants are given. Whether binding was seen depends on the method and setting. In cells and extracts the contact can be indirect. Some binding calls cover weakened binding; strength is not graded here.

The values below come from publication PMC5473221.

Consider “calstabin2 (FKBP12.6) (from UniProt P68106 1-108)”, for which the binding entry is reported as “binds”.
As for spinophilin (from UniProt Q96SB3 1-817), the entry is “binds”.
